For seven substances, binding results are on record in paper PMC8042123.

Sequences of proteins named here, by UniProt entry; tags and fusion partners are left off. A change or cut given only in a name is not applied to a line headed by its entry.
UniProt Q96524: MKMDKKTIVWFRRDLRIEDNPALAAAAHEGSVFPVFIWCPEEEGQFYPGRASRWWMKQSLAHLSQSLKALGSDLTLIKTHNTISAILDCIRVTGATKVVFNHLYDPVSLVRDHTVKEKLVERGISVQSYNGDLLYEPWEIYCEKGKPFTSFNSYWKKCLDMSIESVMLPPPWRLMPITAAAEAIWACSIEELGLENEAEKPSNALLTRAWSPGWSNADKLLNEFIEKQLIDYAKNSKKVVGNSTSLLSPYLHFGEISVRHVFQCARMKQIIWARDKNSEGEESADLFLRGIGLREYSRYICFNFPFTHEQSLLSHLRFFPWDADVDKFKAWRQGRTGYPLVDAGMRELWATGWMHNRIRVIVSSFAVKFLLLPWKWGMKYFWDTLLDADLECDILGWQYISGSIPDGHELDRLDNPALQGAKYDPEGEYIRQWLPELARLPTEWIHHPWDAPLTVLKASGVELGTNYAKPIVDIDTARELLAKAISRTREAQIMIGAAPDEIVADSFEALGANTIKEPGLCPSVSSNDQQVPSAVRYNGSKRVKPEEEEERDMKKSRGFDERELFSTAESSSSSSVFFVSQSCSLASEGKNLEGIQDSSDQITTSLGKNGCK
UniProt O82343: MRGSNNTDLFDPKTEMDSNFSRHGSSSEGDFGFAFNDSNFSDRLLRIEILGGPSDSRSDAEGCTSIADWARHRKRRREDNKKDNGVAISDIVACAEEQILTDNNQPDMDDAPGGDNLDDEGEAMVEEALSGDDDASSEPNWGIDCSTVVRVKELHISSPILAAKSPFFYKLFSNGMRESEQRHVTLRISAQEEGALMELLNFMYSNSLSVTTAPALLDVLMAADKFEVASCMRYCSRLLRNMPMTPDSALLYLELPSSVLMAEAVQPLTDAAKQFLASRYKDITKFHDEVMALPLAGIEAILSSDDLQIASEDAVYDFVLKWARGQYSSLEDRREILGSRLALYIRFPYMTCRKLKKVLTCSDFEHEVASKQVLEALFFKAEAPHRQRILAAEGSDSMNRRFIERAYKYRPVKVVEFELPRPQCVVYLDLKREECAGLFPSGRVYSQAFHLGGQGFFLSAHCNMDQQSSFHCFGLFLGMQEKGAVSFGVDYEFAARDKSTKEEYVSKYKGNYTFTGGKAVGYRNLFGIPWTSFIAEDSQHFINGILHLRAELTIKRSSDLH
UniProt Q9FPW6: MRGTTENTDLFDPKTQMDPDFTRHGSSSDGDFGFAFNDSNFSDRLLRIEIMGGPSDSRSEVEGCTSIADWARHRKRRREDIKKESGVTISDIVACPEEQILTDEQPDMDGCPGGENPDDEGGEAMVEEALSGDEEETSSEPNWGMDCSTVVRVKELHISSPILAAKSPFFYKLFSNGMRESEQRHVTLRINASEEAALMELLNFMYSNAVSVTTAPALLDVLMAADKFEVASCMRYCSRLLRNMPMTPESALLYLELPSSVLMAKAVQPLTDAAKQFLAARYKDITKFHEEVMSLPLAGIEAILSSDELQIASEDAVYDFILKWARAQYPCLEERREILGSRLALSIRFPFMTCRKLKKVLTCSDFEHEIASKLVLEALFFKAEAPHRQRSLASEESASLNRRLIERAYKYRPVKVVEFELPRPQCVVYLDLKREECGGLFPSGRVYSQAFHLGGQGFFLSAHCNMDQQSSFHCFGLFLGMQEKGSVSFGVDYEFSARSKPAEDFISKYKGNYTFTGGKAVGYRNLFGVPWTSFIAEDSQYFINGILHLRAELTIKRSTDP

These are yes or no findings as the source states them, for the method shown. In cells and extracts the contact can be indirect. For some of these results: Binding calls can cover weak binding; strength is not graded here.

The target in experiment [1] is CRY2^D387A, BiFC fusion (Arabidopsis thaliana) (UniProt Q96524). The experiment in a line: split reporter; BiFC (nYFP/cCFP) in Arabidopsis leaves infiltrated with Agrobacterium; confocal microscopy, Hoechst 33342 for nuclei.
In experiment [2] the target is CRY2, BiFC fusion (Arabidopsis thaliana) (UniProt Q96524). The description is as above.
Experiment [3] addresses cLUC-CRY2 (Arabidopsis thaliana) (UniProt Q96524). The experiment in a line: split reporter; split-luciferase complementation in N. benthamiana leaves, pairs co-expressed with FGFP-PPK1.
Experiment [4] addresses FGFP-CRY2 (Flag-GFP-tagged CRY2) (Arabidopsis thaliana) (UniProt Q96524). The experiment in a line: co-IP; 7-day-old transgenic Arabidopsis seedlings, etiolated then blue light (100 μmol m^-2 s^-1) for the indicated time, or grown in long days or continuous white light; GFP-trap beads; anti-Flag and anti-Myc blots.
Experiment [5] concerns the target CRY2^P532L, Flag-tagged, phosphorylated (co-expressed with PPK1, blue light) (Arabidopsis thaliana) (UniProt Q96524). As to the kind of experiment: co-IP; HEK293T cells co-transfected (with PPK1, PPK1^D267N or SPA1 as indicated), blue light 100 μmol m^-2 s^-1 for 2 h; lysis in 1% Brij buffer, Anti-FLAG M2 affinity gel 4 °C 2 h, elution with 3xFlag peptide, immunoblot. (In general: In western blotting, separated proteins are transferred to a membrane and probed.)

The target of experiment [6] is CCE2 (CRY2 C-terminal extension), Flag-tagged (Arabidopsis thaliana) (UniProt Q96524). Described as above.
Experiment [7] addresses Flag-CRY2^D387A (Arabidopsis thaliana) (UniProt Q96524). The experiment is described as above.
Experiment [8] has as its target Flag-LRB1 (Arabidopsis thaliana) (UniProt O82343). Described as above.

As for LRB1, BiFC fusion (from UniProt O82343), the figures for the binding result in experiment [1] and in experiment [2] were “no binding” and “binds”, respectively. Turning to LRB1ΔBTB-nLUC (from UniProt O82343), in experiment [3], the binding entry is “binds”. Consider LRB2, BiFC fusion (from UniProt Q9FPW6), for which the binding entry in experiment [1] was “no binding”. For LRB2ΔBTB-nLUC (from UniProt Q9FPW6), in experiment [3], the binding entry is given as “binds”. “Myc-LRB1 (transgenic Arabidopsis) (from UniProt O82343)”: the binding result in experiment [4] is “binds”. Myc-LRB2 (from UniProt Q9FPW6): the results for the binding entry in experiment [5], in experiment [6] and in experiment [7] were “binds”, “binds” and “no binding”, respectively. “phosphorylated CRY2 (co-expressed with PPK1, blue light; prey of Flag-LRB1 and Flag-LRB2) (from UniProt Q96524 1-612)”: the binding result in experiment [8] was “binds”.
